PubChem BioAssay AID652243, Drosophila RNAi Screening Center, 2013
The screen tested about 24,000 reagents; shown is a random part of those with a known target gene and a result. Of all reagents, 246 (1%) are marked active. 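Plates not normalised; calls are printed but the firefly/Renilla ratio behind them is not deposited; fold cut for lowering reported inconsistently.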 Raw values are not corrected between plates. Entries without a mark were called inactive. Not stated in the record: the amount of reagent.

- Purpose: 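Knock-downs that decrease or increase androgen receptor reporter signal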 (primary screen)
- Cell system: Drosophila S2R+ cells
- Reagents: long dsRNA against Drosophila genes
- Duration: 72 h (48 h, then 24 h hormone)
- Conditions: synthetic androgen R1881 at 10 nM for 24 h
- Detection: 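Per-well raw luminescence of the androgen-driven firefly reporter and of the Renilla control, two replicates each, without normalisation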
- Direction: firefly reporter light: higher = more light from androgen-responsive reporter; Renilla control light: higher = more constitutive control signal (cell number, transfection)
- Hit rule: 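Hit when the log firefly-to-Renilla ratio dropped or increased by a fixed fold versus the mean of GFP or LacZ controls across duplicate plates; lowering cut given as 1.5 and as 3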
- Meaning of the calls: active = hit: reporter lowered or raised; inactive = no hit

cmb (combover) [DRSC09790]: firefly reporter light, replicate 1 = 2.97e5; firefly reporter light, replicate 2 = 2.90e5; Renilla control light, replicate 1 = 3.26e6; Renilla control light, replicate 2 = 2.61e6
cmb (combover) [DRSC25444]: firefly reporter light, replicate 1 = 8.86e5; firefly reporter light, replicate 2 = 1.07e6; Renilla control light, replicate 1 = 1.09e6; Renilla control light, replicate 2 = 9.35e5
cmb (combover) [DRSC39052]: firefly reporter light, replicate 1 = 3.09e5; firefly reporter light, replicate 2 = 3.32e5; Renilla control light, replicate 1 = 1.30e6; Renilla control light, replicate 2 = 1.49e6
yki (yorkie) [DRSC04437]: firefly reporter light, replicate 1 = 6.49e5; firefly reporter light, replicate 2 = 1.65e5; Renilla control light, replicate 1 = 1.65e6; Renilla control light, replicate 2 = 7.03e5
yki (yorkie) [DRSC28304]: firefly reporter light, replicate 1 = 3.79e5; firefly reporter light, replicate 2 = 3.53e5; Renilla control light, replicate 1 = 1.03e6; Renilla control light, replicate 2 = 1.12e6
PIG-B (Phosphatidylinositol glycan anchor biosynthesis class B) [DRSC08216]: firefly reporter light, replicate 1 = 5.52e5; firefly reporter light, replicate 2 = 5.42e5; Renilla control light, replicate 1 = 3.41e6; Renilla control light, replicate 2 = 3.07e6
PIG-B (Phosphatidylinositol glycan anchor biosynthesis class B) [DRSC22598]: firefly reporter light, replicate 1 = 8.96e5; firefly reporter light, replicate 2 = 7.37e5; Renilla control light, replicate 1 = 1.10e6; Renilla control light, replicate 2 = 9.77e5
Osi16 (Osiris 16) [DRSC12135]: firefly reporter light, replicate 1 = 86795; firefly reporter light, replicate 2 = 64137; Renilla control light, replicate 1 = 1.27e6; Renilla control light, replicate 2 = 2.42e6
Osi16 (Osiris 16) [DRSC21323]: firefly reporter light, replicate 1 = 8.87e5; firefly reporter light, replicate 2 = 8.58e5; Renilla control light, replicate 1 = 1.73e6; Renilla control light, replicate 2 = 1.63e6
CG12511 [DRSC02171]: firefly reporter light, replicate 1 = 1.52e5; firefly reporter light, replicate 2 = 1.57e5; Renilla control light, replicate 1 = 1.59e6; Renilla control light, replicate 2 = 1.40e6
Nph (Nucleophosmin) [DRSC16342]: firefly reporter light, replicate 1 = 2.39e5; firefly reporter light, replicate 2 = 1.68e5; Renilla control light, replicate 1 = 2.59e6; Renilla control light, replicate 2 = 2.51e6
CG4021 [DRSC04439]: firefly reporter light, replicate 1 = 3.38e5; firefly reporter light, replicate 2 = 3.45e5; Renilla control light, replicate 1 = 2.20e6; Renilla control light, replicate 2 = 2.39e6
CG4021 [DRSC25492]: firefly reporter light, replicate 1 = 9.54e5; firefly reporter light, replicate 2 = 1.01e6; Renilla control light, replicate 1 = 1.03e6; Renilla control light, replicate 2 = 1.08e6
l(2)37Cb (lethal (2) 37Cb) [DRSC02095]: firefly reporter light, replicate 1 = 1.09e6; firefly reporter light, replicate 2 = 7.20e5; Renilla control light, replicate 1 = 2.07e6; Renilla control light, replicate 2 = 1.96e6
l(2)37Cb (lethal (2) 37Cb) [DRSC24383]: firefly reporter light, replicate 1 = 7.89e5; firefly reporter light, replicate 2 = 1.34e6; Renilla control light, replicate 1 = 8.75e5; Renilla control light, replicate 2 = 9.94e5

Next part, starting with the last 3 of the part before.
CG4021 [DRSC25492]: firefly reporter light, replicate 1 = 9.54e5; firefly reporter light, replicate 2 = 1.01e6; Renilla control light, replicate 1 = 1.03e6; Renilla control light, replicate 2 = 1.08e6
l(2)37Cb (lethal (2) 37Cb) [DRSC02095]: firefly reporter light, replicate 1 = 1.09e6; firefly reporter light, replicate 2 = 7.20e5; Renilla control light, replicate 1 = 2.07e6; Renilla control light, replicate 2 = 1.96e6
l(2)37Cb (lethal (2) 37Cb) [DRSC24383]: firefly reporter light, replicate 1 = 7.89e5; firefly reporter light, replicate 2 = 1.34e6; Renilla control light, replicate 1 = 8.75e5; Renilla control light, replicate 2 = 9.94e5
woc (without children) [DRSC15928]: firefly reporter light, replicate 1 = 1.24e5; firefly reporter light, replicate 2 = 99859; Renilla control light, replicate 1 = 3.56e5; Renilla control light, replicate 2 = 4.64e5
CG5693 [DRSC02878]: firefly reporter light, replicate 1 = 1.93e5; firefly reporter light, replicate 2 = 1.66e5; Renilla control light, replicate 1 = 1.87e6; Renilla control light, replicate 2 = 1.86e6
Pura (Puratrophin-1-like) [DRSC08891]: firefly reporter light, replicate 1 = 1.99e5; firefly reporter light, replicate 2 = 1.26e5; Renilla control light, replicate 1 = 4.07e5; Renilla control light, replicate 2 = 2.27e5
Pura (Puratrophin-1-like) [DRSC10862]: firefly reporter light, replicate 1 = 1.23e5; firefly reporter light, replicate 2 = 1.78e5; Renilla control light, replicate 1 = 1.28e6; Renilla control light, replicate 2 = 1.65e6
Pura (Puratrophin-1-like) [DRSC10864]: firefly reporter light, replicate 1 = 1.06e5; firefly reporter light, replicate 2 = 1.02e5; Renilla control light, replicate 1 = 1.33e6; Renilla control light, replicate 2 = 1.16e6
Pura (Puratrophin-1-like) [DRSC10865]: firefly reporter light, replicate 1 = 95541 (active); firefly reporter light, replicate 2 = 85316; Renilla control light, replicate 1 = 2.26e6; Renilla control light, replicate 2 = 2.12e6
Pura (Puratrophin-1-like) [DRSC10866]: firefly reporter light, replicate 1 = 1.46e5 (active); firefly reporter light, replicate 2 = 1.32e5; Renilla control light, replicate 1 = 3.14e6; Renilla control light, replicate 2 = 3.17e6
Pura (Puratrophin-1-like) [DRSC26606]: firefly reporter light, replicate 1 = 3.26e5; firefly reporter light, replicate 2 = 3.99e5; Renilla control light, replicate 1 = 3.72e5; Renilla control light, replicate 2 = 3.26e5
sr (stripe) [DRSC13284]: firefly reporter light, replicate 1 = 2.46e5; firefly reporter light, replicate 2 = 1.89e5; Renilla control light, replicate 1 = 3.54e5; Renilla control light, replicate 2 = 3.36e5
sr (stripe) [DRSC25793]: firefly reporter light, replicate 1 = 2.62e5; firefly reporter light, replicate 2 = 2.73e5; Renilla control light, replicate 1 = 6.32e5; Renilla control light, replicate 2 = 4.56e5
mwh (multiple wing hairs) [DRSC08382]: firefly reporter light, replicate 1 = 35257; firefly reporter light, replicate 2 = 89602; Renilla control light, replicate 1 = 8.90e5; Renilla control light, replicate 2 = 7.13e5
mwh (multiple wing hairs) [DRSC27439]: firefly reporter light, replicate 1 = 3.52e5; firefly reporter light, replicate 2 = 3.68e5; Renilla control light, replicate 1 = 5.85e5; Renilla control light, replicate 2 = 7.92e5
mwh (multiple wing hairs) [DRSC38854]: firefly reporter light, replicate 1 = 6.38e5; firefly reporter light, replicate 2 = 7.57e5; Renilla control light, replicate 1 = 1.49e6; Renilla control light, replicate 2 = 1.84e6
